Measurements as given in patent publication US20140349314A1, “METHODS AND COMPOSITIONS FOR DETECTING AND TREATING INFLAMMATORY DISEASE” (Beth Israel Deaconess Medical Center, Inc., priority 2010, published 2014).
At least one compound was matched to its structure with a doubt left.

Tested on: MP-stimulated MMP-3 mRNA expression in HSC
Experiment: Signaling pathway inhibition: MP-stimulated MMP-3 mRNA expression in HSC
Assay type: cell-based, human
Details: vs untreated S100-MP stimulated controls; LY, U 5 μg/mL
Method: In order to define major signaling pathways that lead to MMP-induction by S100-MP, we used specific inhibitors of several kinases. MP-stimulated MMP-3 mRNA expression served as fibrolytic read-out.
Pathway inhibition experiments were performed in 24 hour serum-starved HSC. […] The proteasome inhibitor MG132 (Rockland Inc., USA) was used to block NFκB nuclear translocation and activity.

With `O=c1cc(N2CCOCC2)oc2c(-c3ccccc3)cccc12` [LY294002] the “effect on MP-stimulated MMP-3 mRNA, in words” value was “unchanged”.
